The text below walks through data of the supplement of paper PMC12067093, “Discovery and optimisation of a covalent ligand for TRIM25 and its application to targeted protein ubiquitination” (Chemical Science, 2025).

Protein sequences, listed by entry. Tags and fused reporters are not part of them. Lines headed by an entry give the natural chain unless they say otherwise; changes in a name come on top.
UniProt Q9NUD5: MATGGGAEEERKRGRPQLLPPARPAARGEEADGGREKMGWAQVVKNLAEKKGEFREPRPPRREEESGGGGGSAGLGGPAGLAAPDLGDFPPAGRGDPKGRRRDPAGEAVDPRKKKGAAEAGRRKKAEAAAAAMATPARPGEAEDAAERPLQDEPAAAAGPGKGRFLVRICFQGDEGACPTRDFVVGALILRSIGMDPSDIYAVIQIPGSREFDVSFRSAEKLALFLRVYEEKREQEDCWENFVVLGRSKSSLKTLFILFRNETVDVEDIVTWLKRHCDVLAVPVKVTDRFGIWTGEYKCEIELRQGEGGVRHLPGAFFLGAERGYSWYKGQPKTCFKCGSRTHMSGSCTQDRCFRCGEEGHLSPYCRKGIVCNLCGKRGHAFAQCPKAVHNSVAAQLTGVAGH
UniProt Q96QU8: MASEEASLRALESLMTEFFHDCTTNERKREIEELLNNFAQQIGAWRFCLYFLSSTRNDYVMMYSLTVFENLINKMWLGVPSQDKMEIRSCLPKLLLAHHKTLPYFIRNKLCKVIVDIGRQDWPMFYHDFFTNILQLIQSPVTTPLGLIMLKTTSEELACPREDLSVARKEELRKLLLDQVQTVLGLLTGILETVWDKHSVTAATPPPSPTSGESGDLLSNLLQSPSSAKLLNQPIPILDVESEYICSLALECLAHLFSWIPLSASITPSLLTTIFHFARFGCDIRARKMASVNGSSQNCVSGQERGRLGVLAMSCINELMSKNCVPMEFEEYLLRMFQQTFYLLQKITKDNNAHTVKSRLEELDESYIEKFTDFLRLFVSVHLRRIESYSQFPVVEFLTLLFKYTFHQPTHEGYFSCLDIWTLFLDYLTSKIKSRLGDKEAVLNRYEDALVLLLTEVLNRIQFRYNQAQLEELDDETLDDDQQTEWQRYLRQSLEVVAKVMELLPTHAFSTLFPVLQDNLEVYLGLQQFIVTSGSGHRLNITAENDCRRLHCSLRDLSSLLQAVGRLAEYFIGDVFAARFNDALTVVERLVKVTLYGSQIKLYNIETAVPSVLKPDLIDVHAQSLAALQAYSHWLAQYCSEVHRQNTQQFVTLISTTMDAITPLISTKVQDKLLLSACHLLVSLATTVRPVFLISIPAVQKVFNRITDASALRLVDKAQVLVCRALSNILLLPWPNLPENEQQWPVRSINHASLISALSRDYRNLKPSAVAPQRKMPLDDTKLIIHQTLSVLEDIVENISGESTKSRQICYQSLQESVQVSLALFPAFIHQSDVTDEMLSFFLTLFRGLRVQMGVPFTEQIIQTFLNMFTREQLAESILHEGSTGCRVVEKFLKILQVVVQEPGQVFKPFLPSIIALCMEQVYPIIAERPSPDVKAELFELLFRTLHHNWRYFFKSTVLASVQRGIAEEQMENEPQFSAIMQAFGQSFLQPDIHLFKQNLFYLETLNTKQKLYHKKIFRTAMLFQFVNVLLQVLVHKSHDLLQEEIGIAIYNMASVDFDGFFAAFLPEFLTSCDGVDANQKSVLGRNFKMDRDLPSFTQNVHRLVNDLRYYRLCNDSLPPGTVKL
UniProt Q9H6S0: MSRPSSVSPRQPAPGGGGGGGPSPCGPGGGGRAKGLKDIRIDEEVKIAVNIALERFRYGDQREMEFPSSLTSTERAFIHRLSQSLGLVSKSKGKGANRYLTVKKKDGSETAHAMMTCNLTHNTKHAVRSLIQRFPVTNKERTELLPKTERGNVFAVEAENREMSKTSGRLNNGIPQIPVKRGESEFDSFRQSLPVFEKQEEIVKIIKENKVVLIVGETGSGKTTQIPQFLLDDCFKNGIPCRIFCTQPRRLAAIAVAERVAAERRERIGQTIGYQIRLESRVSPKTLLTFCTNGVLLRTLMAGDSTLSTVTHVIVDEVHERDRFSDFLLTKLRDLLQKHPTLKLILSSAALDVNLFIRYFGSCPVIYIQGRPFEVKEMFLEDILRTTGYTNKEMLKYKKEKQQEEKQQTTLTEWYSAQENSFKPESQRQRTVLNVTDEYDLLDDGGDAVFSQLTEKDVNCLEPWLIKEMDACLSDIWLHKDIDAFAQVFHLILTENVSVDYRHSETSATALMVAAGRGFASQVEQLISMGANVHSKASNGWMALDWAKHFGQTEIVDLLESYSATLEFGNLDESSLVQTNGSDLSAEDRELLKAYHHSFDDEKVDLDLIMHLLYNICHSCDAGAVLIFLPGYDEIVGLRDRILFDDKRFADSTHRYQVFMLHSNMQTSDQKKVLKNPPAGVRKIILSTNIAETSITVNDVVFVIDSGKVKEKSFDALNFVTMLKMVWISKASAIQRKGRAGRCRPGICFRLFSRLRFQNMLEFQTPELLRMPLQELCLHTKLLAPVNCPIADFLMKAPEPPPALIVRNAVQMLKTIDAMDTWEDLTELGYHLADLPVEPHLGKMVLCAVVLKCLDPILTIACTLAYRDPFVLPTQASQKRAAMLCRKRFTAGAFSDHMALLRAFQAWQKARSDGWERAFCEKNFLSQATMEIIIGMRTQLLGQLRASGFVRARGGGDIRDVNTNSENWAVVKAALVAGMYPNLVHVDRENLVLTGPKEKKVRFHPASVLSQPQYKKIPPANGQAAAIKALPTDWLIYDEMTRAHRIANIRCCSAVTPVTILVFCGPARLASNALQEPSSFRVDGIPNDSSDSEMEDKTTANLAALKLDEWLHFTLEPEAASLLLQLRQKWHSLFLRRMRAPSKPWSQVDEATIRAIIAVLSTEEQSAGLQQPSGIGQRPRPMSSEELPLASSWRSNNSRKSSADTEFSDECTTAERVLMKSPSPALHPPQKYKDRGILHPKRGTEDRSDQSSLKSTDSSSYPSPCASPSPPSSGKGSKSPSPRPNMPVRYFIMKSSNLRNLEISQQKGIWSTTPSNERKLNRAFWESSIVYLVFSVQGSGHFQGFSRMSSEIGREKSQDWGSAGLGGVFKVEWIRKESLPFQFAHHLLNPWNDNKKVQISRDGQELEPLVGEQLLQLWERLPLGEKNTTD
UniProt Q9H0D6: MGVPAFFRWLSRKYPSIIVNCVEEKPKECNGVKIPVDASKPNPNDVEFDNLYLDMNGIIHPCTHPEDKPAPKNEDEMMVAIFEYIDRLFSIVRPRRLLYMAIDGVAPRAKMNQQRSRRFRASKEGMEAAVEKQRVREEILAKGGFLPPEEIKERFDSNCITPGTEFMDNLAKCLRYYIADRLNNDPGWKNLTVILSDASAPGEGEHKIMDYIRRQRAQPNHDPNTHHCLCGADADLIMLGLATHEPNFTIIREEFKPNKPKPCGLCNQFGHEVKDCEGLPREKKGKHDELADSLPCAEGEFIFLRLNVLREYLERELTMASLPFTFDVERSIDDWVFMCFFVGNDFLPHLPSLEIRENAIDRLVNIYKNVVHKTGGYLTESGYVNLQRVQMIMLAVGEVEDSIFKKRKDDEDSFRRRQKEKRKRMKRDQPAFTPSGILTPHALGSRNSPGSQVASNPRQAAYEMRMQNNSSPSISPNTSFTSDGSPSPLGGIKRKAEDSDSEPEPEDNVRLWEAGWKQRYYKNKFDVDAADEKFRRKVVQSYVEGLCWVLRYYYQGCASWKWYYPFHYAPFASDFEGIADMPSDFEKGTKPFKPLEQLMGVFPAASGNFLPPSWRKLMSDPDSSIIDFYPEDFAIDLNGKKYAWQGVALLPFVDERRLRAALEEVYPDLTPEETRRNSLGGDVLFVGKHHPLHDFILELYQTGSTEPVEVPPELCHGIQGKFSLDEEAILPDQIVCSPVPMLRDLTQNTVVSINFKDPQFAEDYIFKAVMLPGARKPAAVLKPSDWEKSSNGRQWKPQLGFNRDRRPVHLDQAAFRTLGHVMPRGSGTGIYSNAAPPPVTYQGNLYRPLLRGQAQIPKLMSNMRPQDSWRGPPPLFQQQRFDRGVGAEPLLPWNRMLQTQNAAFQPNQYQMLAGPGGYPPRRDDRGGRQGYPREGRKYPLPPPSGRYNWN
UniProt O43542: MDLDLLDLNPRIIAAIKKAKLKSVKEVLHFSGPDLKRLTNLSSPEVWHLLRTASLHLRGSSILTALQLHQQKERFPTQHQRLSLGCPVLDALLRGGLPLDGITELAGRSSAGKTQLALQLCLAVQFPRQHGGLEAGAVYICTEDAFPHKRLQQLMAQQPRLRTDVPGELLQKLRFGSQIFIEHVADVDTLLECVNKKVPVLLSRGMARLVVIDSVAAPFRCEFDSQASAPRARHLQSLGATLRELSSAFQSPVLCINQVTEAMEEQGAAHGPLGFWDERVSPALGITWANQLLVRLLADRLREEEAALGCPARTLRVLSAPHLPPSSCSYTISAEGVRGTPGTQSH
UniProt O15498: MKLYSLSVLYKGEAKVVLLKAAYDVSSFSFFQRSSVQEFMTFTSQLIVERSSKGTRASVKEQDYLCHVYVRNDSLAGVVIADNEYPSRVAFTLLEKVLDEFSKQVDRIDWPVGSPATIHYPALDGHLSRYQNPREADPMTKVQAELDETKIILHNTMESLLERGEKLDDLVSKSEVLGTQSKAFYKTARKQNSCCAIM
UniProt Q7Z2W4: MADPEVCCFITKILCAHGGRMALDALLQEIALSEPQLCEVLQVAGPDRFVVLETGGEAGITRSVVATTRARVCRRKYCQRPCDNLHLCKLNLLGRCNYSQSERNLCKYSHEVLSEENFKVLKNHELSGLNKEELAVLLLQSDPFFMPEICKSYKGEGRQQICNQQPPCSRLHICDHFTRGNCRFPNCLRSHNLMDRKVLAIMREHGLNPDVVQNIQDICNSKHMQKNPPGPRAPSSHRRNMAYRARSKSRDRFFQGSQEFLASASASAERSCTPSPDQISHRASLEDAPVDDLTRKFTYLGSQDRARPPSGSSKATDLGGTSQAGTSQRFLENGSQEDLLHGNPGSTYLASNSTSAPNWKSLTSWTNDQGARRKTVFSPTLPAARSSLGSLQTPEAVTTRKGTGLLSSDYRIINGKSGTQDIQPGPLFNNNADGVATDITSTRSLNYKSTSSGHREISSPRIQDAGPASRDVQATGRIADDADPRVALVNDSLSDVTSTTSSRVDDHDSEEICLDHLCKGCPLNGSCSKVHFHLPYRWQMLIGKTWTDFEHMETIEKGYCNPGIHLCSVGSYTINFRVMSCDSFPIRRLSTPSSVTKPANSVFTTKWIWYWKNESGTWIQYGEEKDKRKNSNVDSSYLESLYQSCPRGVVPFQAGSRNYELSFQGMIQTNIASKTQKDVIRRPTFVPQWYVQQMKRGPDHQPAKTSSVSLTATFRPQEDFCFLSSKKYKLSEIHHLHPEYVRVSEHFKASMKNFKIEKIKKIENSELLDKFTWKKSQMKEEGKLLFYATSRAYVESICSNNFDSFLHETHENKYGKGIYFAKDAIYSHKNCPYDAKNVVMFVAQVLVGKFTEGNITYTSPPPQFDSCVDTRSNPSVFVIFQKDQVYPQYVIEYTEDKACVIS
UniProt Q9HAV4: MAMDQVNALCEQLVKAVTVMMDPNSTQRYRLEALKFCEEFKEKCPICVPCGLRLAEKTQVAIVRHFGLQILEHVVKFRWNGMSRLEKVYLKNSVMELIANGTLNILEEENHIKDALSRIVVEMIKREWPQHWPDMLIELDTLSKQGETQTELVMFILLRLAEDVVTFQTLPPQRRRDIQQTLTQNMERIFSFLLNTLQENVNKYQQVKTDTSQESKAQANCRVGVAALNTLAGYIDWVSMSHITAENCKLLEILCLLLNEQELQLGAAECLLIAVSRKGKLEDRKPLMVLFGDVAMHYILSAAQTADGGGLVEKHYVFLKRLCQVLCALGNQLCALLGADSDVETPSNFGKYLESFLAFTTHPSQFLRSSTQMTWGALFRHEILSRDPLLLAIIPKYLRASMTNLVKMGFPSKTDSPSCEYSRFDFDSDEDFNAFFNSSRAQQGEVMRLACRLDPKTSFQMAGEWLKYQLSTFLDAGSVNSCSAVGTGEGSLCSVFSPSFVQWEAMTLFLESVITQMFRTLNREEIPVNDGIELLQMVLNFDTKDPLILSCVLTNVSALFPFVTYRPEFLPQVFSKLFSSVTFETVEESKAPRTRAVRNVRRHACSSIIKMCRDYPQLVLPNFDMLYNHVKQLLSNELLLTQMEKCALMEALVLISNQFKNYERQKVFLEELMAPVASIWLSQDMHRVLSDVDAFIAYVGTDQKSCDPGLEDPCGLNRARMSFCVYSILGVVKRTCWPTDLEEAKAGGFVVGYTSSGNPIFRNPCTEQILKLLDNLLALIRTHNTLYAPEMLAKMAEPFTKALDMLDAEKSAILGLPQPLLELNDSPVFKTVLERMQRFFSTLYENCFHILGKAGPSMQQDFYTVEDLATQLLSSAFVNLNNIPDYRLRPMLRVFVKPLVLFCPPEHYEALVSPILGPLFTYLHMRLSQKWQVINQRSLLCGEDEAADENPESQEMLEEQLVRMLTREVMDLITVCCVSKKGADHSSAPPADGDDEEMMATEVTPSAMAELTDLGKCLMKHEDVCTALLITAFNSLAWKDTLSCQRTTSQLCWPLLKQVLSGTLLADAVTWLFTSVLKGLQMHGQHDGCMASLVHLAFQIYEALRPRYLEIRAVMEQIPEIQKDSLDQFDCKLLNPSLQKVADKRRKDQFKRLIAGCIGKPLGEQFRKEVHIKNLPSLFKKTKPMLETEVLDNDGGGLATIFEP

The other results are listed elsewhere or left out.
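Note: competitive profiling in live THP-1 cells: cysteine peptides tagged with an iodoacetamide desthiobiotin (IA-DTB) probe, intensity after compound treatment relative to DMSO-treated cells.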

Compound in this experiment: Cc1cc(ccc1-c1ccccc1)C(=O)N1CCCN(CC1)C(=O)CCl [compound 10]
The experiment in a line: probe-labelled cysteine peptide fold change vs DMSO (competition) (log2 fold change); higher = less target engagement (more negative = stronger competition). To be noted: 50 µM; THP-1; incubation time: 4 h.
“ZCCHC3_Q9NUD5_178_ICFQGDEGACPTR (UniProt Q9NUD5)”: the “probe-labelled cysteine peptide fold change” value was -0.0525.

Take “ZBTB43_O43298_450_HVTSCTK (UniProt O43298)”: the “probe-labelled cysteine peptide fold change” value is -0.0117.

Regarding “ZFAND1_Q8TCF1_184_SKPMFFCHR (UniProt Q8TCF1)”, the “probe-labelled cysteine peptide fold change” value was -0.351.

As for “XPO6_Q96QU8_324_NCVPMEFEEYLLR (UniProt Q96QU8)”, the “probe-labelled cysteine peptide fold change” value turned out to be 0.145.

Take “XRCC5_P13010_249_HSIHWPCR (UniProt P13010)”: the “probe-labelled cysteine peptide fold change” value amounted to 0.257.

Consider “YWHAG_P61981_112_NCSETQYESK (UniProt P61981)”, for which the “probe-labelled cysteine peptide fold change” value was 0.155.

Take “XPO6_Q96QU8_886_EQLAESILHEGSTGCR (UniProt Q96QU8)”: the “probe-labelled cysteine peptide fold change” value turned out to be 0.331.

For “YTHDC2_Q9H6S0_777_MPLQELCLHTK (UniProt Q9H6S0)”, the “probe-labelled cysteine peptide fold change” value was -0.184.

With “ZC3HAV1L_Q96H79_99+108_GECQACDQLHFCR (UniProt Q96H79)”, the “probe-labelled cysteine peptide fold change” value was 0.0744.

Regarding “YWHAE_P62258_98_LICCDILDVLDK (UniProt P62258)”, the “probe-labelled cysteine peptide fold change” value was -0.323.

XRN2_Q9H0D6_29_ECNGVK (UniProt Q9H0D6): the “probe-labelled cysteine peptide fold change” value is -0.425.

For “ZC3H14_Q6PJT7_641_CLFVHPNCK (UniProt Q6PJT7)”, the “probe-labelled cysteine peptide fold change” value was -0.0994.

For “ZC3HC1_Q86WB0_112_YGWVTVECDMLK (UniProt Q86WB0)”, the “probe-labelled cysteine peptide fold change” value is -0.396.

Turning to “ZC3H7A_Q8IWR0_572_LLQEHLGEFIFLCEK (UniProt Q8IWR0)”, the “probe-labelled cysteine peptide fold change” value is -0.117.

For the target “ZBTB1_Q9Y2K1_532_HSACPFR (UniProt Q9Y2K1)”, the “probe-labelled cysteine peptide fold change” value was -0.174.

For the target “XRCC3_O43542_310_LREEEAALGCPAR (UniProt O43542)”, the “probe-labelled cysteine peptide fold change” value was -0.408.

Take “XRCC1_P18887_20_HVVSCSSQDSTHCAENLLK (UniProt P18887)”: the “probe-labelled cysteine peptide fold change” value came out at 0.244.

With “YKT6_O15498_66_EQDYLCHVYVR (UniProt O15498)”, the “probe-labelled cysteine peptide fold change” value stood at 0.289.

“ZC3H15_Q8WU90_105_SVVCAFFK (UniProt Q8WU90)”: the “probe-labelled cysteine peptide fold change” value is -0.12.

As to “ZC3HAV1_Q7Z2W4_7_ADPEVCCFITK (UniProt Q7Z2W4)”, the “probe-labelled cysteine peptide fold change” value stood at 0.175.

With “YWHAH_Q04917_112_NCNDFQYESK (UniProt Q04917)”, the “probe-labelled cysteine peptide fold change” value turned out to be 0.124.

With “XPO5_Q9HAV4_977_EVMDLITVCCVSK (UniProt Q9HAV4)”, the “probe-labelled cysteine peptide fold change” value is -0.196.

With “ZC3H4_Q9UPT8_448_AENCPYMHGDFPCK (UniProt Q9UPT8)”, the “probe-labelled cysteine peptide fold change” value was -0.0513.

Take “ZC3HAV1_Q7Z2W4_518_VDDHDSEEICLDHLCK (UniProt Q7Z2W4)”: the “probe-labelled cysteine peptide fold change” value is -0.378.
